# PubChem BioAssay AID1224828, NIAID | 2016
# Aim: 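Regulators linking TLR4 signalling to p65 nuclear translocation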 (primary screen)
# Cells: mouse RAW264.7 G9 macrophage reporter cells (GFP-p65, Tnf promoter-mCherry)
# Reagents: siRNA pool against mouse genes, 100 nM
# Duration: 2 days siRNA transfection, then 40 min LPS before fixation
# Challenge: LPS (Salmonella minnesota R595) at 10 ng/ml
# Measured: 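Microscopy ratio of nuclear to perinuclear-ring GFP-p65 signal, scaled to the plate median; gene score is the average of two replicate robust z-scores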
# Direction: p65 translocation robust z-score: higher = more nuclear NF-kappaB p65 after LPS than the plate median; nuclear/cytoplasmic p65 ratio: higher = more nuclear NF-kappaB p65
# Active means: 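Active if robust z is above 3.3 (negative regulators) or below -1.56, the Tlr4 control median (positive regulators); activity score 50 or more; control wells not called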
# Calls: active = hit (p65 shift raised or lowered); inactive = no clear change
# The whole screen tested about 17,000 reagents; shown is a random part of them. 762 of all reagents (4.5%) were called active. 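Active calls include both raised and lowered p65 entry, mostly lowered; wells with fewer than 50 cells lack a z-score.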 Raw values are not corrected between plates. Unmarked entries are inactive.
gene knocked down,p65 translocation robust z-score,"nuclear/cytoplasmic p65 ratio, rep 1","nuclear/cytoplasmic p65 ratio, rep 2",low cell count flag
Prkar1a (GeneID 19084),,1.59,1.07,fewer than 50 cells per well; well left out of scoring
Hmgcl (GeneID 15356),-0.78,1.29,1.32,enough cells to score
Gm11961 (GeneID 327860),0.3,1.38,1.61,enough cells to score
6030452D12Rik (GeneID 330837),1.03,1.39,1.7,enough cells to score
Fbxw5 (GeneID 30839),1.73,1.8,1.74,enough cells to score
Pdlim2 (GeneID 213019),,1.15,1.01,fewer than 50 cells per well; well left out of scoring
Plekhg4 (GeneID 102075),-1.35,1.11,1.14,enough cells to score
Cdhr1 (GeneID 170677),-1.43,1.2,1.12,enough cells to score
Brd7 (GeneID 26992),0.05,1.65,1.6,enough cells to score
Tnfrsf17 (GeneID 21935),-0.68,1.41,1.44,enough cells to score
Ackr1 (GeneID 13349),-0.7,1.39,1.5,enough cells to score
Ctso (GeneID 229445),0.14,1.54,1.36,enough cells to score
Mtg1 (GeneID 212508),,1.04,1.57,fewer than 50 cells per well; well left out of scoring
Rxrg (GeneID 20183),0.05,1.54,1.54,enough cells to score
Tmem80 (GeneID 71448),0.07,1.35,1.49,enough cells to score
Spag17 (GeneID 74362),,1.02,1.27,fewer than 50 cells per well; well left out of scoring
Rapgef1 (GeneID 107746),0.45,1.59,1.57,enough cells to score
Or10g1 (GeneID 258423),1.74,1.86,1.66,enough cells to score
Apmap (GeneID 71881),1.43,1.48,1.54,enough cells to score
4933427E11Rik (GeneID 66769),1.32,1.48,1.64,enough cells to score
Cebpg (GeneID 12611),1.23,1.66,1.51,enough cells to score
Sp7 (GeneID 170574),-0.52,1.4,1.55,enough cells to score
Psma2 (GeneID 19166),,1.38,1.33,fewer than 50 cells per well; well left out of scoring
Atp6v1b2 (GeneID 11966),-1.65 (active),1.29,1.35,enough cells to score
Klhdc1 (GeneID 271005),-0.65,1.41,1.39,enough cells to score
Nipal4 (GeneID 214112),-0.11,1.4,1.54,enough cells to score
Wnt9a (GeneID 216795),-0.61,1.49,1.36,enough cells to score
Cd33 (GeneID 12489),-0.43,1.51,1.74,enough cells to score
Erc1 (GeneID 111173),-1.08,1.26,1.08,enough cells to score
Or52a5b (GeneID 18370),-1.66 (active),1.18,1.08,enough cells to score
Scrn1 (GeneID 69938),0.07,1.41,1.24,enough cells to score
Mindy3 (GeneID 66960),-1.57 (active),1.16,1.19,enough cells to score
Chrna3 (GeneID 110834),-2.05 (active),1.2,1.12,enough cells to score
Lrrc66 (GeneID 231296),0.21,1.63,1.85,enough cells to score
Hoxd4 (GeneID 15436),0.37,1.46,1.45,enough cells to score
Slc2a6 (GeneID 227659),,1.36,1.07,fewer than 50 cells per well; well left out of scoring
Map3k6 (GeneID 53608),0.23,1.89,1.4,enough cells to score
Prh1 (GeneID 19131),0.38,1.48,1.22,enough cells to score
Pdxp (GeneID 57028),-0.34,1.34,1.43,enough cells to score
Usp26 (GeneID 83563),-0.52,1.5,1.38,enough cells to score
Paqr6 (GeneID 68957),0.87,1.59,1.63,enough cells to score
Plscr2 (GeneID 18828),,1.7,1.28,fewer than 50 cells per well; well left out of scoring
Echdc3 (GeneID 67856),0.43,1.52,1.33,enough cells to score
Cdk11b (GeneID 12537),,1.98,1.33,fewer than 50 cells per well; well left out of scoring
Akap5 (GeneID 238276),0.86,1.86,1.45,enough cells to score
Rmnd5a (GeneID 68477),0.07,1.58,1.43,enough cells to score
Chsy3 (GeneID 78923),,1.7,1.13,fewer than 50 cells per well; well left out of scoring
Lysmd3 (GeneID 80289),-0.23,1.56,1.78,enough cells to score
Grk6 (GeneID 26385),0.77,1.75,1.67,enough cells to score
Neurod2 (GeneID 18013),-0.68,1.63,1.52,enough cells to score
Dag1 (GeneID 13138),0.3,1.54,1.38,enough cells to score
Tlk2 (GeneID 24086),-0.41,1.69,1.28,enough cells to score
Crisp1 (GeneID 11571),-1.73 (active),1.41,1.41,enough cells to score
Ankmy2 (GeneID 217473),-1.56,1.33,1.49,enough cells to score
Pias2 (GeneID 17344),1.15,1.49,1.58,enough cells to score
Eral1 (GeneID 57837),0.56,1.5,1.48,enough cells to score
Samd13 (GeneID 75015),,1.45,1.4,fewer than 50 cells per well; well left out of scoring
Bmi1 (GeneID 12151),0.72,1.75,1.7,enough cells to score
Ppp2r2b (GeneID 72930),-0.8,1.44,1.54,enough cells to score

Reagents above called active, once more:
gene knocked down,p65 translocation robust z-score,"nuclear/cytoplasmic p65 ratio, rep 1","nuclear/cytoplasmic p65 ratio, rep 2",low cell count flag
Atp6v1b2 (GeneID 11966),-1.65 (active),1.29,1.35,enough cells to score
Or52a5b (GeneID 18370),-1.66 (active),1.18,1.08,enough cells to score
Mindy3 (GeneID 66960),-1.57 (active),1.16,1.19,enough cells to score
Chrna3 (GeneID 110834),-2.05 (active),1.2,1.12,enough cells to score
Crisp1 (GeneID 11571),-1.73 (active),1.41,1.41,enough cells to score
